From US20130035289A1, “PHARMACEUTICAL COMPOSITION FOR TREATMENT OF THROMBOSIS-RELATED DISEASES COMPRISING A FRAGMENT OF PROLACTIN (PRL)-GROWTH HORMONE (GH)-PLACENTAL LACTOGEN (PL)-FAMILY PROTEIN” (UNIVERSITE DE LIEGE, priority 2010, published 2013)
Results are given in words; binding and its absence hold for the method and conditions named. For some assays here: In cells and extracts the contact can be indirect. Some entries that bind do so weakly or less than the wild type.

How the values were obtained:
[1] = molecular target: T1, Endogenous murine PAI-1 (mouse plasma) (mouse) (UniProt P22777); assay: immunoprecipitation of PAI-1 from mouse plasma, Western blot for 16K PRL
T1 sequence (looked up): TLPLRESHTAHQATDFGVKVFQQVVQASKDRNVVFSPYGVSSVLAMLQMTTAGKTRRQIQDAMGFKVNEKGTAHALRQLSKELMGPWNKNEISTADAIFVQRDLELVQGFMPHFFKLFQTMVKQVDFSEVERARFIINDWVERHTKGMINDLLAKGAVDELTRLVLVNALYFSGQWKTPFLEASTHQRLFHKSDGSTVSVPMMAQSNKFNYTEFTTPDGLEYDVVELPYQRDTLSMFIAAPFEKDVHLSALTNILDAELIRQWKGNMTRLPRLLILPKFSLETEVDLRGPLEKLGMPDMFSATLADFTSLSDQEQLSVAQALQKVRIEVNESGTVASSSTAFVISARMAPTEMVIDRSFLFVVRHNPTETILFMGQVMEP

[2] = molecular target: T1, Endogenous murine PAI-1 (mouse plasma) (mouse); assay: co-immunoprecipitation from mouse plasma, Western blot

- binding [1]: binds
- binding [2]: binds
B1: Recombinant 16K N-terminal human prolactin (16K hPRL) (protein, UniProt P01236 29-167, looked up)
chain: LPICPGGAARCQVTLRDLFDRAVVLSHYIHNLSSEMFSEFDKRYTHGRGFITKAINSCHTSSLATPEDKEQAQQMNQKDFLSLIVSILRSWNEPLYHLVTEVRGMQEAPEAILSKAVEIEEQTKRLLEGMELIVSQVHP
